# The exact form of at least one protein or probe is not confirmed.
# By UniProt entry, the sequences of proteins in these tests, tags left out. Residues count along the entry.
# UniProt P0ACJ8, 2-210: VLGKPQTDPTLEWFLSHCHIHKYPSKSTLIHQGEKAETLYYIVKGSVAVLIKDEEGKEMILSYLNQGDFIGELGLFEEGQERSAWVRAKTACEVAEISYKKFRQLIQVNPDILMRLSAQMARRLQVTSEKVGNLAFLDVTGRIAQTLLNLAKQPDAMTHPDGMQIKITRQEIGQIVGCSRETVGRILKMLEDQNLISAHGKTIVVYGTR
# Target: CAP (cAMP receptor protein, CRP) (Escherichia coli) (UniProt P0ACJ8)
# Assay: binding assay
# Conditions: 12 Spacer 18 units between the C22 and A23 positions of CAP7 (after ...GGCACC) [strand 1: 2 (N, modified T), 12 Spacer 18 units left out after ...GGCACC (between 21 and 22 as printed; stated C22/A23); strand 2: 2 (N, modified T)]; FRET quenching about 70% at 75 nM CAP, complete within about 20 s; 50 mM NaCl, 200 uM cAMP; purified recombinant protein; letters built from the parent sequence and the stated change
sequence,measurement,value
CTAGATCACATTTTAGGCACCAACGCAATAAATGTGAT / CTAGATCACATTTATTGCGTT / GGTGCCTAAAATGTGAT [CAP7/CAP8/CAP9 linked construct],binding result,binds

# Source: US7172865
